Assay [1] deals with protein kinase C alpha (PKC‐α) (mouse (endogenous in primary mouse cardiomyocytes)) (UniProt P20444). As to the kind of experiment: co-IP; endogenous proteins; lysate of neonatal mouse ventricular myocytes (pmCMs) in IP lysis buffer with protease/phosphatase inhibitors; 5 µg primary antibody on Protein A+G magnetic beads, 400 µg lysate, 4 °C overnight, washed with TBS; immunoblot; done in both directions. On the technique in general: A western blot detects proteins with antibodies after separation by electrophoresis.

By UniProt entry, the sequences of proteins in these tests, tags left out.
UniProt O70468: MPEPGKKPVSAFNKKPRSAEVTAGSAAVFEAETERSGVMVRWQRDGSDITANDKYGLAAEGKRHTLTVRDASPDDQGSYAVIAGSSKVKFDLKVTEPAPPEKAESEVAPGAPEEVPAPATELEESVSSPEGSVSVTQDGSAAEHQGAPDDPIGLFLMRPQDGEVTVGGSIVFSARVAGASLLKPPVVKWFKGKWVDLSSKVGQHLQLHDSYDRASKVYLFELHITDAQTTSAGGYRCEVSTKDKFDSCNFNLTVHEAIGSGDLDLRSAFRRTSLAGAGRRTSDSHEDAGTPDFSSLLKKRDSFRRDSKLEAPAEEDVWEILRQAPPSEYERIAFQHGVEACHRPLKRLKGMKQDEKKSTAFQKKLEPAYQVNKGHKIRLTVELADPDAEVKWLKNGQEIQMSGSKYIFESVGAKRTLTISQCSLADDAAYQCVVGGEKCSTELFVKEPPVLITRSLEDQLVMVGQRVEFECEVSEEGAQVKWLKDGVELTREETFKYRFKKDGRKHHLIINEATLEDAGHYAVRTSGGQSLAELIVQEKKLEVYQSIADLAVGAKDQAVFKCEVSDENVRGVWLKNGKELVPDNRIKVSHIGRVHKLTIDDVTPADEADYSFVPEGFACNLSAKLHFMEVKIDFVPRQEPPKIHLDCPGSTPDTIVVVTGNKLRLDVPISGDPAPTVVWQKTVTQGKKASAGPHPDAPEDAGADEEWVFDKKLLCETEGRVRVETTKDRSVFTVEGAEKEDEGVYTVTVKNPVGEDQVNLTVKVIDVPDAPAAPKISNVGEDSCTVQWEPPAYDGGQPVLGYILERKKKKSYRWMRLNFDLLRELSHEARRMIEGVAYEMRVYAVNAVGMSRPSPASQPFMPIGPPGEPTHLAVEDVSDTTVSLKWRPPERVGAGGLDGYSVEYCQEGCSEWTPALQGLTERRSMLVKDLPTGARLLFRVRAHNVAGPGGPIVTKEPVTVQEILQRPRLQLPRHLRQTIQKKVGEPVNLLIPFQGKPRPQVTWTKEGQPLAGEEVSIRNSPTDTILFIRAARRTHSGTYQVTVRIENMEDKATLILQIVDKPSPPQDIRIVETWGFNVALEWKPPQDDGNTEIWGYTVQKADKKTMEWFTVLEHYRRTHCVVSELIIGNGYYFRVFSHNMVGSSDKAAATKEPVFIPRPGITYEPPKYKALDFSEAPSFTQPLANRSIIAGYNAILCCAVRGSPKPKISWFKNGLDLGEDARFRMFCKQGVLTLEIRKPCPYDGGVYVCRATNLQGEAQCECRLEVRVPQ

Assay [2] deals with myosin‐binding protein‐C (MYBPC3) (mouse (endogenous in primary mouse cardiomyocytes)) (UniProt O70468). The description is as above.

The results in this text go back to publication PMC12442697.

These are yes or no findings as the source states them, for the method shown. Binding seen in cells or lysates may run through a third protein. Some results given as binding are weak or reduced against the parent protein; the word gives no strength.

For “myosin‐binding protein‐C (MYBPC3) (from UniProt O70468 1-1270)”, the binding result in assay [1] is “binds”.
In the case of “protein kinase C alpha (PKC‐α) (from UniProt P20444 1-672) (enzyme)”, in assay [2], the binding result is recorded as “binds”.
